Laboratory results published in article PMC10913371.
These are yes or no findings as the source states them, for the method shown.

Molecular target: Clostridioides difficile translation initiation factor 1 (Clostridioides difficile) (UniProt Q18CI2)
Assay: 15N NMR relaxation (R1 and R2); rotational correlation time of ~6 ns and molecular weight of ~10 kDa; NMR solution conditions; both purified

- binding: no binding
B1: Clostridioides difficile translation initiation factor 1 (protein, UniProt Q18CI2 1-72)
chain: MASMAKKDVIELEGTVSEALPNAMFKVKLENGHEILCHISGKLRMNFIRILEGDKVNVELSPYDLTRGRITWRKK
